{"source": "PubChem BioAssay (EPA / NIEHS)", "note": "“And” between values parts separate entries of the source, which are not always exact repeats. Identical values can stand only once. Inconclusive results, whose numbers are uncertain, are shown with a selection of clear calls. A potency beside an inconclusive call is a rough fit, not a confirmed value. The source made the active and inactive calls. How the source made its calls: active means hit-call score of the fitted dose curve at least 0.9, where 1 is the maximum; inconclusive means response in the unintended direction; inactive means score below 0.9.", "data": [{"system": "turtle Estrogen Receptor (ESR1), gene 101933533", "assay": "ATG_trERa_XSP1: Attagene TRANS-FACTORIAL Multi-Species (XSP1) HepG2 Assay for turtle Estrogen Receptor (ESR1) (AID 2283781)", "outline": "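Turtle ERa as a GAL4 chimera in transiently transfected HepG2 cells; reporter mRNA quantified 24 h after dosing by RT-PCR and capillary electrophoresis. 3 nM 6-alpha-fluorotestosterone present; gain of signal versus DMSO.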", "values": [{"smiles": "CCC[CH2][Sn]([Cl])([CH2]CCC)[CH2]CCC", "AC50": "inconclusive: 0.579 µM"}, {"smiles": "Clc1ccc(C(c2ccc(Cl)cc2)C(Cl)Cl)cc1", "AC50": "active: 26.4 µM"}, {"smiles": "COP(=O)(OC)O/C(=C\\Cl)c1cc(Cl)c(Cl)cc1Cl", "AC50": "inconclusive: 183 µM"}]}, {"system": "not listed separately", "assay": "ACEA_ER_AUC_viability: ACEA Biosciences xCELLigence Real-Time Cell Analysis on Estrogen Receptor Agonism for Viability (AID 2283782);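 further: continuous compound exposure with impedance area under curve over 80 h; hit means loss of impedance signal meaning reduced cell growth or viability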", "outline": "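T47D cells preconditioned in phenol red-free RPMI with charcoal-stripped FBS, then dosed with 8-point 1:4 series from 100 uM (up to 0.5% DMSO). Impedance monitored up to ~80 h; area-under-curve loss versus DMSO taken as viability.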", "values": [{"smiles": "CC(C)N1C(=O)N(c2ccccc2)CSC1=NC(C)(C)C", "AC50": "active: 89.6 µM"}, {"smiles": "Cc1cc(Cl)ccc1OC(C)C(=O)O", "note": "(stereo not drawn)", "outcome": "inactive"}, {"smiles": "COc1cc(OC)nc(NC(=O)NS(=O)(=O)c2ncccc2OCC(F)(F)F)n1", "AC50": "inconclusive: 0.0223 µM"}, {"smiles": "CNC(=S)S", "AC50": "inconclusive: 50 µM"}, {"smiles": "CCNS(=O)(=O)C(F)(F)C(F)(F)C(F)(F)C(F)(F)C(F)(F)C(F)(F)C(F)(F)C(F)(F)F", "AC50": "inconclusive: 0.589 nM and inconclusive: 75 µM"}, {"smiles": "Oc1ccccc1-c1ccccc1", "AC50": "inconclusive: 51 µM"}, {"smiles": "Nn1cnnc1", "AC50": "inconclusive: 50 µM"}, {"smiles": "CS(=O)(=O)c1cc(C(F)(F)F)ccc1C(=O)c1cnoc1C1CC1", "outcome": "inactive"}, {"smiles": "CCCCOCCOP(=O)(OCCOCCCC)OCCOCCCC", "AC50": "inconclusive: 10.2 µM"}, {"smiles": "CC(C)(C)N(NC(=O)c1ccc(Cl)cc1)C(=O)c1ccccc1", "AC50": "inconclusive: 0.0943 µM"}, {"smiles": "CNC(=O)Oc1cccc2c1OC(C)(C)C2", "outcome": "inactive"}, {"smiles": "CC(=O)C=C(C)C", "AC50": "inconclusive: 10.9 µM"}, {"smiles": "N#Cc1c(Cl)c(Cl)c(Cl)c(C#N)c1Cl", "AC50": "active: 1.54 µM"}, {"smiles": "CCC(=NOC/C=C/Cl)C1=C(O)CC(C2CCOCC2)CC1=O", "note": "(stereo not drawn)", "outcome": "inactive"}, {"smiles": "Cc1ccc(N)cc1N", "AC50": "inconclusive: 50 µM"}]}]}
